Experimental data: paper PMC12750793
These are yes or no findings as the source states them, for the method shown. Binding seen in cells or lysates may run through a third protein. Some binding calls cover weakened binding; strength is not graded here.

Amino acid sequences for entries named in this document (tags omitted). A change or cut given only in a name is not applied to a line headed by its entry.
UniProt O43524: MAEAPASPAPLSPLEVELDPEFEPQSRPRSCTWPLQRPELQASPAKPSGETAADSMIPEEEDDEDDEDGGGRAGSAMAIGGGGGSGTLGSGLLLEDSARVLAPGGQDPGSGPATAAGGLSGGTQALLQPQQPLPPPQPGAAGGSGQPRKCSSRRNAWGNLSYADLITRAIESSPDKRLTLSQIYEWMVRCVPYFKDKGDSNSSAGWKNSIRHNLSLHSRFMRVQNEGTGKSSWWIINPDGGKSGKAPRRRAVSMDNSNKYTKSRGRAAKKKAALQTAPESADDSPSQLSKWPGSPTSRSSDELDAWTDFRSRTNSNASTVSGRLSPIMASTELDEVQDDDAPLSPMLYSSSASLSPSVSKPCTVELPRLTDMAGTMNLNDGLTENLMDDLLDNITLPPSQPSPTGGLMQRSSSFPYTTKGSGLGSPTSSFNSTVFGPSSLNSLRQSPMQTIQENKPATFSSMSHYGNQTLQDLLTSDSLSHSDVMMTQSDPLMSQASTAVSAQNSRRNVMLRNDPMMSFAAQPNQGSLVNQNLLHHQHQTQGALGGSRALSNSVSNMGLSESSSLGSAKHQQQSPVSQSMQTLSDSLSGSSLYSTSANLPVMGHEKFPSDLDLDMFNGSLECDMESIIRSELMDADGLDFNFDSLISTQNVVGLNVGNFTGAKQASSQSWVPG
UniProt P19474: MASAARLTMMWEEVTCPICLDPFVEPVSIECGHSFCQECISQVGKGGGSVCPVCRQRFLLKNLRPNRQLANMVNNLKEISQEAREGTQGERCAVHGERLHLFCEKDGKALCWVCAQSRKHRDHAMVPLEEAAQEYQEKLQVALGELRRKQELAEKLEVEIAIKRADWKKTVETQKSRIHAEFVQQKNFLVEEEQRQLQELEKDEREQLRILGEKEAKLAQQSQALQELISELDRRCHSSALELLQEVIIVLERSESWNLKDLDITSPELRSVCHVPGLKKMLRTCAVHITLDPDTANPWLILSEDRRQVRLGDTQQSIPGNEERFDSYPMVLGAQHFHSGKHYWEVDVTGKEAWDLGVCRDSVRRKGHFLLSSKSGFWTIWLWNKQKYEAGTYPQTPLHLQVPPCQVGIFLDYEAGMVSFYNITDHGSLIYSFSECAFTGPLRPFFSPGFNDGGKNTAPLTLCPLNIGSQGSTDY

What was measured:
G9a [1] = biological target: G9a (UniProt Q96KQ7); test: pull-down; GST pull-down; which protein carried GST and the conditions not stated
FoxO3a = FoxO3a (UniProt O43524); test: co-IP; IP screening of multiple TRIM proteins against FoxO3a; cells not given
G9a [2] = biological target: G9a (UniProt Q96KQ7); test: co-IP; G9a and FoxO3a overexpressed in 293T cells
[3] = biological target: T1, G9a protein 680-896 amino acid (aa) (UniProt Q96KQ7); test: co-IP; truncated mutants of G9a and FoxO3a expressed in cells; cell line not stated
T1 sequence: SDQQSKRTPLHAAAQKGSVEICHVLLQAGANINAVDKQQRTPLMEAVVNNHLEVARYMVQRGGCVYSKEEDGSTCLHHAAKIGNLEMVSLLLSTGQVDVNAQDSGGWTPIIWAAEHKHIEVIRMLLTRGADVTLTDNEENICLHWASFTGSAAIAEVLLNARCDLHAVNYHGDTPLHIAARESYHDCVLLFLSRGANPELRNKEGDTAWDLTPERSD

G9a [4] = biological target: G9a (UniProt Q96KQ7); test: as above

For FoxO3a (from UniProt O43524 1-673), the binding (G9a [1]) was “binds”.

With “TRIM21 (from UniProt P19474 1-475) (enzyme)” the binding (FoxO3a) was “binds”.

In the case of “HA-FoxO3a, full-length (from UniProt O43524 1-673)”, the binding (G9a [2]) is reported as “binds” and the binding [3] is reported as “binds”.

With “FoxO3a protein 150-300aa (from UniProt O43524 150-300) (domain or fragment)” the binding (G9a [4]) was “binds”.
